PubChem BioAssay AID1259405 | NCATS | 2018
This is a random part of about 50,000 deposited reagents. About 4,000 of all reagents (8%) were called active. 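Mouse siRNA library applied to hamster cells; one well for each siRNA.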 Entries without a mark were called inactive.

Purpose: 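Knock-downs that lift recombinant protein yield in hamster ovary cells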 (primary screen)
Cell system: Chinese hamster CHO-K1 ovary cells with stable secreted eGFP expression
Knock-down reagent: single siRNA against mouse genes, 0.8 pmol siRNA per well (2 µl of 400 nM stock)
Duration: 3 days
Measured: 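Percent of the per-plate non-targeting control median for intracellular GFP per well by laser scanning cytometry and for cell viability by ATP luminescence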
Direction: GFP, % of control: higher = more GFP per well, higher productivity; viability (ATP), % of control: higher = more viable cells (more ATP)
Hit rule: 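Called active when intracellular GFP, relative to negative control, is at or above 120%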

gene,PubChem SID,"GFP, % of control","viability (ATP), % of control"
"Nfil3 (nuclear factor, interleukin 3, regulated)",SID363573805,97.3,106
"Nfil3 (nuclear factor, interleukin 3, regulated)",SID363581549,98.4,97.9
"Nfil3 (nuclear factor, interleukin 3, regulated)",SID363584013,84,94.4
Flrt2 (fibronectin leucine rich transmembrane protein 2),SID363568888,137 (active),106
Flrt2 (fibronectin leucine rich transmembrane protein 2),SID363576280,116,52.6
Flrt2 (fibronectin leucine rich transmembrane protein 2),SID363579096,98.2,71.3
Cep120 (centrosomal protein 120),SID363546772,30.5,25.7
Cep120 (centrosomal protein 120),SID363548528,60.5,46.3
Cep120 (centrosomal protein 120),SID363560706,16.1,23.6
Or4b12 (olfactory receptor family 4 subfamily B member 12),SID363554113,76.6,86
Or4b12 (olfactory receptor family 4 subfamily B member 12),SID363567560,87.4,66.7
Or4b12 (olfactory receptor family 4 subfamily B member 12),SID363584917,67.9,106
Ndufb11 (NADH:ubiquinone oxidoreductase subunit B11),SID363562298,97.9,51
Ndufb11 (NADH:ubiquinone oxidoreductase subunit B11),SID363567436,83.5,88.4
Ndufb11 (NADH:ubiquinone oxidoreductase subunit B11),SID363584793,118,65.1
Tmeff2,SID363541868,106,76.9
Tmeff2,SID363553460,48.6,60.3
Tmeff2,SID363566784,59.1,65.4
Ksr1 (kinase suppressor of ras 1),SID363547486,77.3,65.3
Ksr1 (kinase suppressor of ras 1),SID363558255,88.6,67.9
Ksr1 (kinase suppressor of ras 1),SID363560013,84.5,88.7
Cyb5rl (cytochrome b5 reductase-like),SID363543849,66.5,77.7
Cyb5rl (cytochrome b5 reductase-like),SID363551585,31.3,52.6
Cyb5rl (cytochrome b5 reductase-like),SID363559190,57.1,58
Ube3b (ubiquitin protein ligase E3B),SID363572814,166 (active),56
Ube3b (ubiquitin protein ligase E3B),SID363578094,89,64.9
Ube3b (ubiquitin protein ligase E3B),SID363582318,98.4,97.9
Afap1 (actin filament associated protein 1),SID363543684,108,68.8
Afap1 (actin filament associated protein 1),SID363551420,86.2,66.3
Afap1 (actin filament associated protein 1),SID363559025,62.2,56.3
Or52e4 (olfactory receptor family 52 subfamily E member 4),SID363554248,114,76.3
Or52e4 (olfactory receptor family 52 subfamily E member 4),SID363567695,121 (active),64.3
Or52e4 (olfactory receptor family 52 subfamily E member 4),SID363585052,62.5,116
"Nbr1 (NBR1, autophagy cargo receptor)",SID363562123,167 (active),110
"Nbr1 (NBR1, autophagy cargo receptor)",SID363567261,64.3,86.8
"Nbr1 (NBR1, autophagy cargo receptor)",SID363584618,53.2,43.7
Zp1 (zona pellucida glycoprotein 1),SID363553665,74,74.8
Zp1 (zona pellucida glycoprotein 1),SID363561622,77.1,81.3
Zp1 (zona pellucida glycoprotein 1),SID363565360,109,81.4
Mettl21e (methyltransferase like 21E),SID363542445,57,81.2
Mettl21e (methyltransferase like 21E),SID363551936,67,55.7
Mettl21e (methyltransferase like 21E),SID363559541,56.1,53.6

13 successive records already listed:
gene,PubChem SID,"GFP, % of control","viability (ATP), % of control"
Cyb5rl (cytochrome b5 reductase-like),SID363559190,57.1,58
Ube3b (ubiquitin protein ligase E3B),SID363572814,166 (active),56
Ube3b (ubiquitin protein ligase E3B),SID363578094,89,64.9
Ube3b (ubiquitin protein ligase E3B),SID363582318,98.4,97.9
Afap1 (actin filament associated protein 1),SID363543684,108,68.8
Afap1 (actin filament associated protein 1),SID363551420,86.2,66.3
Afap1 (actin filament associated protein 1),SID363559025,62.2,56.3
Or52e4 (olfactory receptor family 52 subfamily E member 4),SID363554248,114,76.3
Or52e4 (olfactory receptor family 52 subfamily E member 4),SID363567695,121 (active),64.3
Or52e4 (olfactory receptor family 52 subfamily E member 4),SID363585052,62.5,116
"Nbr1 (NBR1, autophagy cargo receptor)",SID363562123,167 (active),110
"Nbr1 (NBR1, autophagy cargo receptor)",SID363567261,64.3,86.8
"Nbr1 (NBR1, autophagy cargo receptor)",SID363584618,53.2,43.7

The results go on.
gene,PubChem SID,"GFP, % of control","viability (ATP), % of control"
Prpf3 (pre-mRNA processing factor 3),SID363569040,76.2,86.9
Prpf3 (pre-mRNA processing factor 3),SID363583472,91.8,95.6
"Il22ra1 (interleukin 22 receptor, alpha 1)",SID363568652,107,111
"Il22ra1 (interleukin 22 receptor, alpha 1)",SID363576044,159 (active),95.6
"Il22ra1 (interleukin 22 receptor, alpha 1)",SID363578860,54.6,38.6
Gpr87 (G protein-coupled receptor 87),SID363571307,82.3,76.5
Gpr87 (G protein-coupled receptor 87),SID363571659,62.3,73
Gpr87 (G protein-coupled receptor 87),SID363572011,64.5,74.5
Serpina1b,SID363555390,94,88.1
Serpina1b,SID363564051,36.3,29.7
Serpina1b,SID363587597,89.3,119
Paqr5 (progestin and adipoQ receptor family member V),SID363568916,76.7,110
Paqr5 (progestin and adipoQ receptor family member V),SID363576308,52.7,62.5
Paqr5 (progestin and adipoQ receptor family member V),SID363579124,96.7,99.3
Masp2 (MBL associated serine protease 2),SID363574553,57,78.7
Masp2 (MBL associated serine protease 2),SID363575609,63.4,103
Masp2 (MBL associated serine protease 2),SID363580185,58,58.7
BC106179 (cDNA sequence BC106179),SID363546780,68,72.2
BC106179 (cDNA sequence BC106179),SID363548536,55,68.6
BC106179 (cDNA sequence BC106179),SID363560714,59.8,46.6
Spmip8 (sperm microtubule inner protein 8),SID363543454,57.5,74.8
Spmip8 (sperm microtubule inner protein 8),SID363552947,94.6,73.7
Spmip8 (sperm microtubule inner protein 8),SID363558795,64.4,65.8
Lonrf3 (LON peptidase N-terminal domain and ring finger 3),SID363555060,86.9,84
Lonrf3 (LON peptidase N-terminal domain and ring finger 3),SID363568507,94.2,78.1
Lonrf3 (LON peptidase N-terminal domain and ring finger 3),SID363586566,70.1,73.4
Fetub (fetuin beta),SID363540133,50.7,63.9
Fetub (fetuin beta),SID363561434,27.5,50.6
Fetub (fetuin beta),SID363564470,95.6,83.4
Cks2 (CDC28 protein kinase regulatory subunit 2),SID363550144,101,90.1
Cks2 (CDC28 protein kinase regulatory subunit 2),SID363564653,131 (active),76.8
Cks2 (CDC28 protein kinase regulatory subunit 2),SID363588198,102,110
Hivep3,SID363581657,55.7,66.2
Hivep3,SID363589151,89.3,82.4
"C1ql4 (complement component 1, q subcomponent-like 4)",SID363553862,47.8,44.7
"C1ql4 (complement component 1, q subcomponent-like 4)",SID363561819,26.9,56.8
"C1ql4 (complement component 1, q subcomponent-like 4)",SID363565557,40.5,38.5
Uck1 (uridine-cytidine kinase 1),SID363571317,52,58.2
Uck1 (uridine-cytidine kinase 1),SID363571669,57.3,82.3
Uck1 (uridine-cytidine kinase 1),SID363572021,94.3,91.4
Lpin3 (lipin 3),SID363540511,50.8,61.7
Lpin3 (lipin 3),SID363542263,54.5,66.9
Lpin3 (lipin 3),SID363567179,60.2,25.7
